Assay results published in publication PMC8671107 (Frontiers in Molecular Biosciences, 2021).
Results are given in words; binding and its absence hold for the method and conditions named. Some results given as binding are weak or reduced against the parent protein; the word gives no strength.

Chains of the proteins cited; added tags and fusions are not shown. Residues count along the entry.
UniProt P36544, residues 23-502: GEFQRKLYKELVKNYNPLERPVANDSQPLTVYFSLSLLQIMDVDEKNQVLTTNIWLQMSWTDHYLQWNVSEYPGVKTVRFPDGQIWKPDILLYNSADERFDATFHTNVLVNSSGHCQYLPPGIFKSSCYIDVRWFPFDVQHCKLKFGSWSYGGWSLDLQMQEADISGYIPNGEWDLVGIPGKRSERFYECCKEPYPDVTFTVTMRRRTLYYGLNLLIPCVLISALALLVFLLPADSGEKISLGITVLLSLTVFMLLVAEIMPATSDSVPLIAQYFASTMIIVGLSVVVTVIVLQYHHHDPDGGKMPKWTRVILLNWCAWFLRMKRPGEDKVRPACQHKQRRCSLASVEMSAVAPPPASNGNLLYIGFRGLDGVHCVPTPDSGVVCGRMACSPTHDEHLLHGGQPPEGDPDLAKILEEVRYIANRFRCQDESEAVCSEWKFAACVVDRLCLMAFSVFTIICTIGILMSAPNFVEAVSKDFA
UniProt P60615, residues 22-95: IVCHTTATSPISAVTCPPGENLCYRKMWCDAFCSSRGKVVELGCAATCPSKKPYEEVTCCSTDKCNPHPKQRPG

Target: neuronal human α7 nicotinic acetylcholine receptor expressed in GH4C1 cells (human) (UniProt P36544)
Experiment: radioligand binding; only the binder purified

For “^125I-α-bungarotoxin (from UniProt P60615 22-95)”, the binding was “binds”.
